Laboratory results from ChEMBL document CHEMBL3046942, “Synthesis and biological activity of new cycloalkylthiophene-Schiff bases and their Cr(III) and Zn(II) complexes” (2010).

System: Candida albicans
Assay: Antifungal activity against Candida albicans Y-1200-NIH at 100 ug after 24 hr by agar well diffusion method
Format: functional, organism-based

NYSTATIN
inhibition zone (IZ): 20 mm
